# According to article PMC5270677:
# The chains behind the UniProt entries cited, without tags or fusion partners. Where a name states a change or a piece, a line headed by the entry shows the natural chain unless it says otherwise. Residues count along the entry.
# UniProt O00391: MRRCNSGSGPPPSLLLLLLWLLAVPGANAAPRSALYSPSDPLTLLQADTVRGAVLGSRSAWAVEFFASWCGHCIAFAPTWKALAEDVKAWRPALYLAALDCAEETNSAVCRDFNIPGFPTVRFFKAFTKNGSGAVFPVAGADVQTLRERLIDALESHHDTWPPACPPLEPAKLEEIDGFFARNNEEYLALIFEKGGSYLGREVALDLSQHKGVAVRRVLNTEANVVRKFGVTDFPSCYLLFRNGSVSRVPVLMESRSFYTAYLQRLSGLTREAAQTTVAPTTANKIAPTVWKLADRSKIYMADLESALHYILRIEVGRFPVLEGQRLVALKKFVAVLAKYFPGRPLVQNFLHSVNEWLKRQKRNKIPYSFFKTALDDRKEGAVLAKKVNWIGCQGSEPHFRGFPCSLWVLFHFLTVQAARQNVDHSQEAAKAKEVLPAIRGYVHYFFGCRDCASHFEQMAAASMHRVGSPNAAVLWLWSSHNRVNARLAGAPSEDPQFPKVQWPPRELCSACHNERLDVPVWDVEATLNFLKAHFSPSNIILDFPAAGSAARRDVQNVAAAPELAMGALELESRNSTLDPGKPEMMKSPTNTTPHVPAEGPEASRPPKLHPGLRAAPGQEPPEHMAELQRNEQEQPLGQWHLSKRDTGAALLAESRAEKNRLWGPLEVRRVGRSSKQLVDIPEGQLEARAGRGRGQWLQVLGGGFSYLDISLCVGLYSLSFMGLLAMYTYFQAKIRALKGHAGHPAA
# UniProt P47852, residues 25-233: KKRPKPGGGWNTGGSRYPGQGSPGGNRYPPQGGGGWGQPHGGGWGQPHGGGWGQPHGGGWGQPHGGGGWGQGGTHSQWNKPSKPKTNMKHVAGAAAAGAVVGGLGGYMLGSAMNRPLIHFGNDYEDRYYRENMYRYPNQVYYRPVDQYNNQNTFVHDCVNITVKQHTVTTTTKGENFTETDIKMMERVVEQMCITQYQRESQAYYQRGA
# No constants are given. Whether binding was seen depends on the method and setting. Binding seen in cells or lysates may run through a third protein. A result given as binding can be weak or reduced; the word gives no strength.
# Target: Quiescin-sulfhydryl oxidase (QSOX), recombinant human (human) (UniProt O00391)
# Assay: pull-down; only the target purified
substance,measurement,value
PrP^Sc from CWD (chronic wasting disease) brain homogenate (from UniProt P47852 25-233),binding,binds
